Record: PubChem BioAssay AID1671195 (Yale University, 2021)

Test: 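Knockdowns that increase or decrease uptake of fluorescent LDL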 (primary screen)
System: human Huh7 hepatoma cells
Reagents: siRNA pool against human genes, 18 nM
Time to read-out: about 2 to 2.5 days of knockdown, then 8 h LDL uptake
Challenge: DiI-labelled LDL at 30 µg/ml for 8 h, in lipoprotein-deficient serum medium
Measured: 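Fluorescent LDL signal imaged in cells, scaled to the plate median, robust z-score for each replicate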
Reading the numbers: robust z-score: higher = more LDL uptake after knockdown
Active means: 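Active when two or more replicates show a robust z-score above 2 or below -2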
Here is an unselected part of about 22,000 deposited reagents. In the full data, about 1,510 (6.9%) are marked active. 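Active includes knockdowns raising or lowering LDL uptake; positive z-scores mean more uptake, negative mean less.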 A number with no mark means an inactive call.

Target gene	PubChem SID	robust z-score, replicate 1	robust z-score, replicate 2	robust z-score, replicate 3
CEACAM20 (GeneID 125931)	SID442898359	-0.993	0.702	-1.18
LOC440985 (retired record) (GeneID 440985)	SID442898326	-0.156	-0.659	-0.644
LDHA (GeneID 3939)	SID442895849	-0.00179	-0.176	-0.461
KIRREL1 (GeneID 55243)	SID442892839	0.731	-0.612	0.234
CENPT (GeneID 80152)	SID442884030	2.04 (active)	2.04	2.07
TBX5 (GeneID 6910)	SID442883192	3.8 (active)	4.33	4
DRAM2 (GeneID 128338)	SID442884885	1.64	2.21	1.59
CCDC116 (GeneID 164592)	SID442889320	0.506	0.9	0.329
TMEM62 (GeneID 80021)	SID442884659	1.7	2.6	1.82
TNFRSF19 (GeneID 55504)	SID442894440	0.108	-0.132	-0.168
LOC401464 (retired record) (GeneID 401464)	SID442893956	-0.225	0.115	0.0839
LOC442626 (retired record) (GeneID 442626)	SID442890599	1.03	0.245	-0.0925
LDC1P (GeneID 149086)	SID442884675	2.44	1.88	1.69
DEFB127 (GeneID 140850)	SID442898658	-0.922	-0.467	-0.182
MAGT1 (GeneID 84061)	SID442889503	-0.0682	0.356	1.36
POFUT3 (GeneID 84750)	SID442893409	0.097	-0.265	0.329
LOC440152 (retired record) (GeneID 440152)	SID442898298	-0.529	-0.602	-0.318
RCC1L (GeneID 81554)	SID442887644	1.33	0.891	0.384
HPS3 (GeneID 84343)	SID442889811	0.186	0.633	0.7
LOC388589 (retired record) (GeneID 388589)	SID442897859	-0.576	-0.0453	-0.677
ARFIP2 (GeneID 23647)	SID442897763	-1.19	-0.635	0.559
DZANK1 (GeneID 55184)	SID442891408	-0.782	0.274	1.38
RHOJ (GeneID 57381)	SID442888102	0.669	0.206	1.47
TIGAR (GeneID 57103)	SID442900709	-0.702	-1.27	-0.419
FLG (GeneID 2312)	SID442884354	-2.02 (active)	-1.98	-1.98
IL17RE (GeneID 132014)	SID442898806	-0.413	-0.73	-0.474
PTCD2 (GeneID 79810)	SID442888130	0.746	0.846	0.744
ZNF33A (GeneID 7581)	SID442892681	0.0919	0.201	0.118
SNHG17 (GeneID 388796)	SID442898582	-0.376	-0.768	-0.402
CLPP (GeneID 8192)	SID442897491	-0.741	-0.171	-0.263
RPL22L1 (GeneID 200916)	SID442889562	0.874	0.502	0.244
CEP350 (GeneID 9857)	SID442884037	2.38 (active)	2.82	0.932
DCAF7 (GeneID 10238)	SID442896577	-0.285	-1.42	0.838
SLC24A2 (GeneID 25769)	SID442892234	0.458	-0.217	0.342
RPTOR (GeneID 57521)	SID442886593	-0.331	1.58	2.09
H3C2 (GeneID 8358)	SID442887883	0.347	1.01	1.11
CRYGC (GeneID 1420)	SID442893226	-0.197	0.532	-0.111
GALT (GeneID 2592)	SID442885952	1.54	0.903	1.5
LAMB2 (GeneID 3913)	SID442885290	1.41	1.53	1.8
TATDN2 (GeneID 9797)	SID442886124	1.27	0.516	1.99
GABRP (GeneID 2568)	SID442894889	-0.0499	-0.47	0.19
LOC439959 (retired record) (GeneID 439959)	SID442891770	0.168	0.109	0.464
DUSP11 (GeneID 8446)	SID442889858	0.885	0.354	0.256
LOC401454 (retired record) (GeneID 401454)	SID442904408	-1.17	-2.72	-0.996
DAPK3 (GeneID 1613)	SID442893660	-0.254	-0.133	0.46
GPR39 (GeneID 2863)	SID442891764	0.565	-0.0023	0.179
LOC338902 (retired record) (GeneID 338902)	SID442892308	0.302	0.192	0.057
MAFB (GeneID 9935)	SID442896389	-1.71	-0.974	1.88
STEAP2 (GeneID 261729)	SID442891458	0.36	0.339	0.152
SEPTIN5 (GeneID 5413)	SID442897706	-0.72	-0.416	-0.11
POT1-AS1 (GeneID 401398)	SID442888944	0.992	0.214	0.703
DDX19B (GeneID 11269)	SID442901957	-0.926	-1.01	-1.02
ARID4B (GeneID 51742)	SID442896942	-0.392	-0.411	-0.183
ASB9 (GeneID 140462)	SID442901336	-1.37	-0.157	-1.12
TRIP10 (GeneID 9322)	SID442904307	-1.4	-1.69	-1.64
ACTN1 (GeneID 87)	SID442885610	1.63	2.03	0.671
CLNS1A (GeneID 1207)	SID442885123	2.41	1.52	1.08
NPIPB4 (GeneID 440345)	SID442883697	2.51 (active)	2.44	2.38
MCCC2 (GeneID 64087)	SID442884229	2.49 (active)	0.017	2.11
GALE (GeneID 2582)	SID442900615	-1.09	-0.795	-0.462
TIRAP (GeneID 114609)	SID442900309	-1.02	-0.696	-0.513
BTN3A1 (GeneID 11119)	SID442891539	0.462	0.186	0.176
CD2AP (GeneID 23607)	SID442884342	-1.95 (active)	-1.94	-2.05
OR6T1 (GeneID 219874)	SID442887480	0.988	0.816	0.909
LOC390738 (retired record) (GeneID 390738)	SID442892538	0.504	-0.017	-0.0232
RPS6KA3 (GeneID 6197)	SID442894486	-0.154	-0.401	0.351
LOC390641 (retired record) (GeneID 390641)	SID442890910	0.55	0.0668	0.449
IGFBP7 (GeneID 3490)	SID442893550	0.642	-0.0132	-0.516

Entries above whose gene name begins with T or t (7):
Target gene	PubChem SID	robust z-score, replicate 1	robust z-score, replicate 2	robust z-score, replicate 3
TBX5 (GeneID 6910)	SID442883192	3.8 (active)	4.33	4
TMEM62 (GeneID 80021)	SID442884659	1.7	2.6	1.82
TNFRSF19 (GeneID 55504)	SID442894440	0.108	-0.132	-0.168
TIGAR (GeneID 57103)	SID442900709	-0.702	-1.27	-0.419
TATDN2 (GeneID 9797)	SID442886124	1.27	0.516	1.99
TRIP10 (GeneID 9322)	SID442904307	-1.4	-1.69	-1.64
TIRAP (GeneID 114609)	SID442900309	-1.02	-0.696	-0.513
